Test results reported in publication PMC8185148.
Results are given in words; binding and its absence hold for the method and conditions named. In cells and extracts the contact can be indirect. A yes stands for co-enrichment or nearness to the bait. Other partners may have been found.

B1: MX1 (protein, UniProt P27594 1-663)
chain: MVYSSCESKEPDSVSASNHLLLNGNDELVEKSHKTGPENNLYSQYEEKVRPCIDLIDSLRALGVEQDLALPAIAVIGDQSSGKSSVLEALSGVALPRGSGIVTRCPLVLKLKKLVNEEDEWKGKVSYRDSEIELSDASQVEKEVSAAQIAIAGEGVGISHELISLEVSSPHVPDLTLIDLPGITRVAVGNQPYDIEYQIKSLIKKYICKQETINLVVVPCNVDIATTEALRMAQEVDPEGDRTIGILTKPDLVDKGTEDKIVDVARNLVFHLKKGYMIVKCRGQQDIQEQLSLAKALQKEQAFFENHAHFRDLLEEGRATIPCLAERLTSELIMHICKTLPLLENQIKESHQKITEELQKYGSDIPEDESGKMFFLIDKIDAFNSDITALIQGEELVVEYECRLFTKMRNEFCRWSAVVEKNFKNGYDAICKQIQLFENQYRGRELPGFVNYKTFETIIKKQVSVLEEPAVDMLHTVTDLVRLAFTDVSETNFNEFFNLHRTAKSKIEDIKLEQEKEAETSIRLHFQMEQIVYCQDQVYRGALQKVREKEAEEEKNRKSNQYFLSSPAPSSDPSIAEIFQHLIAYHQEVGKRISSHIPLIIQFFILRTFGQQLQKSMLQLLQNKDQYDWLLRERSDTSDKRKFLKERLMRLTQARRRLAKFPG
B2: heterogeneous nuclear ribonucleoprotein hnRNP F (protein, UniProt F1RG16 1-414)
chain: MMLGPEGGEGFVVKLRGLPWSCSVEDVQNFLSDCTIRDGAAGVHFIYTREGRQSGEAFVELESEDDVKMALKKDRESMGHRYIEVFKSHRTEMDWVLKHSGPNSADTANDGFVRLRGLPFGCTKEEIVQFFSGLEIVPNGITLPVDPEGKITGEAFVQFASQELAEKALGKHKERIGHRYIEVFKSSQEEVRSYSDPPLKFMSVQRPGPYDRPGTARRYIGIVKQAGLERMRSGAYSAGYGGYEEYSGLSDGYGFTTDLFGRDLSYCLSGMYDHRYGDGEFTVQSTTGHCVHMRGLPYKATENDIYNFFSPLNPVRVHIEIGPDGRVTGEADVEFATHDEAVAAMSKDRANMQHRYIELFLNSTTGASNGAYSSQMMQGMGVSTQSTYSGLESQSVSGCYGAGYGGQNSMGGYD

Target: GFP-fused PCV3 Cap (capsid protein) (porcine circovirus type 3 (PCV3))
Experiment: affinity purification with mass spectrometry; PK15 cells transfected with GFP-Cap or GFP; lysed in NP-40 buffer (10 mM Tris pH 7.5, 150 mM NaCl, 0.5% NP-40, 0.5 mM EDTA); anti-GFP mAb conjugated beads (GFP-trap); SDS-PAGE, silver stain, differential bands excised for LC-MS/MS

| Binder | binding |
| --- | --- |
| B1 | binds |
| B2 | binds |
